Reference: PMC7592211
No constants are given. Whether binding was seen depends on the method and setting. In cells and extracts the contact can be indirect. Some entries that bind do so weakly or less than the wild type.

By UniProt entry, the sequences of proteins in these tests, tags left out.
UniProt P15682: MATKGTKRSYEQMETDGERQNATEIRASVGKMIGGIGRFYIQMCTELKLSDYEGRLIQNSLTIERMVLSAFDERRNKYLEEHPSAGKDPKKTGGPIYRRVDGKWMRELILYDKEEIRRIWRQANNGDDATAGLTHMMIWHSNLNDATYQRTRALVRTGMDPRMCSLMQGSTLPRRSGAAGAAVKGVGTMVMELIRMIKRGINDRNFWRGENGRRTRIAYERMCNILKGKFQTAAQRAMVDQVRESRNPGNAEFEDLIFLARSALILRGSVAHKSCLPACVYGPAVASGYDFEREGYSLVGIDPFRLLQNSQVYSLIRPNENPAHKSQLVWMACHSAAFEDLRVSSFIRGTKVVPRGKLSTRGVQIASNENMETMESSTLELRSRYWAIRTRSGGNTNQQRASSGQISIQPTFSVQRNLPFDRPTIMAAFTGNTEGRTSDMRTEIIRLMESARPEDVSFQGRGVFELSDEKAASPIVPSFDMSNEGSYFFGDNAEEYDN

B1: human MxB, wild type (protein, UniProt P20592 1-715)
chain: MSKAHKPWPYRRRSQFSSRKYLKKEMNSFQQQPPPFGTVPPQMMFPPNWQGAEKDAAFLAKDFNFLTLNNQPPPGNRSQPRAMGPENNLYSQYEQKVRPCIDLIDSLRALGVEQDLALPAIAVIGDQSSGKSSVLEALSGVALPRGSGIVTRCPLVLKLKKQPCEAWAGRISYRNTELELQDPGQVEKEIHKAQNVMAGNGRGISHELISLEITSPEVPDLTIIDLPGITRVAVDNQPRDIGLQIKALIKKYIQRQQTINLVVVPCNVDIATTEALSMAHEVDPEGDRTIGILTKPDLMDRGTEKSVMNVVRNLTYPLKKGYMIVKCRGQQEITNRLSLAEATKKEITFFQTHPYFRVLLEEGSATVPRLAERLTTELIMHIQKSLPLLEGQIRESHQKATEELRRCGADIPSQEADKMFFLIEKIKMFNQDIEKLVEGEEVVRENETRLYNKIREDFKNWVGILATNTQKVKNIIHEEVEKYEKQYRGKELLGFVNYKTFEIIVHQYIQQLVEPALSMLQKAMEIIQQAFINVAKKHFGEFFNLNQTVQSTIEDIKVKHTAKAENMIQLQFRMEQMVFCQDQIYSVVLKKVREEIFNPLGTPSQNMKLNSHFPSNESSVSSFTEIGIHLNAYFLETSKRLANQIPFIIQYFMLRENGDSLQKAMMQILQEKNRYSWLLQEQSETATKRRILKERIYRLTQARHALCQFSSKEIH
B2: human MxA, wild type (protein, UniProt P20591 1-662)
chain: MVVSEVDIAKADPAAASHPLLLNGDATVAQKNPGSVAENNLCSQYEEKVRPCIDLIDSLRALGVEQDLALPAIAVIGDQSSGKSSVLEALSGVALPRGSGIVTRCPLVLKLKKLVNEDKWRGKVSYQDYEIEISDASEVEKEINKAQNAIAGEGMGISHELITLEISSRDVPDLTLIDLPGITRVAVGNQPADIGYKIKTLIKKYIQRQETISLVVVPSNVDIATTEALSMAQEVDPEGDRTIGILTKPDLVDKGTEDKVVDVVRNLVFHLKKGYMIVKCRGQQEIQDQLSLSEALQREKIFFENHPYFRDLLEEGKATVPCLAEKLTSELITHICKSLPLLENQIKETHQRITEELQKYGVDIPEDENEKMFFLIDKVNAFNQDITALMQGEETVGEEDIRLFTRLRHEFHKWSTIIENNFQEGHKILSRKIQKFENQYRGRELPGFVNYRTFETIVKQQIKALEEPAVDMLHTVTDMVRLAFTDVSIKNFEEFFNLHRTAKSKIEDIRAEQEREGEKLIRLHFQMEQIVYCQDQVYRGALQKVREKELEEEKKKKSWDFGAFQSSSATDSSMEEIFQHLMAYHQEASKRISSHIPLIIQFFMLQTYGQQLQKAMLQLLQDKDTYSWLLKERSDTSDKRKFLKERLARLTQARRRLAQFPG

Molecular target: nucleoprotein (NP) of influenza A virus A/WSN/1933(H1N1) (influenza A virus A/WSN/1933(H1N1)) (UniProt P15682)
Experiment: co-IP

Row | Binder | binding
1 | B1 | binds
2 | B2 | no binding
